{
  "source": "the supplement of paper PMC8728848",
  "assay_in_all_cases": "glycan array binding signal (z-score within array); higher = stronger binding",
  "details_in_all_cases": "glycan notation: IUPAC condensed, linker removed; mutation: Q318A",
  "key": {"[1]": {"molecular_target": "Fuc(a1-2)[GalNAc(a1-3)]Gal(b1-3)GlcNAc(b1-3)GalNAc", "outline": "(§1)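 The Consortium for Functional Glycomics database supplied 3228 glycan arrays, of which those lacking an available protein sequence were dropped. The binding signal, a within-array Z-score, was averaged across arrays of the same protein sequence and across linkers. Negative scores can be read as non-binding.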"}, "[2]": {"molecular_target": "Fuc(a1-2)[GalNAc(a1-3)]Gal(b1-3)GlcNAc(b1-6)GalNAc", "outline": "as §1"}, "[3]": {"molecular_target": "Fuc(a1-2)[GalNAc(a1-3)]Gal(b1-4)Glc", "outline": "as §1"}, "[4]": {"molecular_target": "Fuc(a1-2)[GalNAc(a1-3)]Gal(b1-4)GlcNAc", "outline": "as §1"}, "[5]": {"molecular_target": "Fuc(a1-2)[GalNAc(a1-3)]Gal(b1-4)GlcNAc(b1-2)Man", "outline": "as §1"}, "[6]": {"molecular_target": "Fuc(a1-2)[GalNAc(a1-3)]Gal(b1-4)GlcNAc(b1-2)Man(a1-3)[Fuc(a1-2)[GalNAc(a1-3)]Gal(b1-4)GlcNAc(b1-2)Man(a1-6)]Man(b1-4)GlcNAc(b1-4)GlcNAc", "outline": "as §1"}, "[7]": {"molecular_target": "Fuc(a1-2)[GalNAc(a1-3)]Gal(b1-4)GlcNAc(b1-2)Man(a1-3)[Fuc(a1-2)[GalNAc(a1-3)]Gal(b1-4)GlcNAc(b1-2)Man(a1-6)]Man(b1-4)GlcNAc(b1-4)[Fuc(a1-6)]GlcNAc", "outline": "as §1"}, "[8]": {"molecular_target": "Fuc(a1-2)[GalNAc(a1-3)]Gal(b1-4)GlcNAc(b1-3)Gal(b1-4)GlcNAc", "outline": "as §1"}, "[9]": {"molecular_target": "Fuc(a1-2)[GalNAc(a1-3)]Gal(b1-4)GlcNAc(b1-3)Gal(b1-4)GlcNAc(b1-3)Gal(b1-4)GlcNAc", "outline": "as §1"}, "[10]": {"molecular_target": "Fuc(a1-2)[GalNAc(a1-3)]Gal(b1-4)GlcNAc(b1-3)GalNAc", "outline": "as §1"}, "[11]": {"molecular_target": "Fuc(a1-2)[GalNAc(a1-3)]Gal(b1-4)GlcNAc(b1-3)[Fuc(a1-2)[GalNAc(a1-3)]Gal(b1-4)GlcNAc(b1-6)]GalNAc", "outline": "as §1"}, "[12]": {"molecular_target": "Fuc(a1-2)[GalNAc(a1-3)]Gal(b1-4)GlcNAc(b1-6)GalNAc", "outline": "as §1"}, "[13]": {"molecular_target": "Fuc(a1-2)[GalNAc(a1-3)]Gal(b1-4)[Fuc(a1-3)]GlcNAc", "outline": "as §1"}, "[14]": {"molecular_target": "Fuc(a1-2)[GalNAc(a1-3)]Gal(b1-4)[Fuc(a1-3)]GlcNAc(b1-3)GalNAc", "outline": "as §1"}, "[15]": {"molecular_target": "Fuc(a1-2)[GalNAc(a1-4)]Gal(b1-4)GlcNAc", "outline": "as §1"}, "[16]": {"molecular_target": "Fuc(a1-2)[GalNAc(b1-3)]Gal", "outline": "as §1"}, "Fuc(a1-3)GlcNAc": {"molecular_target": "Fuc(a1-3)GlcNAc", "outline": "as §1"}, "[17]": {"molecular_target": "Fuc(a1-3)[Gal(b1-4)]Glc6S", "outline": "as §1"}, "[18]": {"molecular_target": "Fuc(a1-3)[Gal(b1-4)]GlcNAc", "outline": "as §1"}, "[19]": {"molecular_target": "Fuc(a1-3)[Gal(b1-4)]GlcNAc(b1-2)Man", "outline": "as §1"}, "[20]": {"molecular_target": "Fuc(a1-3)[Gal(b1-4)]GlcNAc(b1-2)Man(a1-3)[Fuc(a1-3)[Gal(b1-4)]GlcNAc(b1-2)Man(a1-6)]Man(b1-4)GlcNAc(b1-4)GlcNAc", "outline": "as §1"}, "[21]": {"molecular_target": "Fuc(a1-3)[Gal(b1-4)]GlcNAc(b1-2)Man(a1-3)[Fuc(a1-3)[Gal(b1-4)]GlcNAc(b1-2)Man(a1-6)]Man(b1-4)GlcNAc(b1-4)[Fuc(a1-6)]GlcNAc", "outline": "as §1"}, "[22]": {"molecular_target": "Fuc(a1-3)[Gal(b1-4)]GlcNAc(b1-3)Gal(b1-3)[Fuc(a1-4)]GlcNAc", "outline": "as §1"}, "[23]": {"molecular_target": "Fuc(a1-3)[Gal(b1-4)]GlcNAc(b1-3)Gal(b1-4)[Fuc(a1-3)]GlcNAc", "outline": "as §1"}, "[24]": {"molecular_target": "Fuc(a1-3)[Gal(b1-4)]GlcNAc(b1-3)Gal(b1-4)[Fuc(a1-3)]GlcNAc(b1-3)Gal(b1-4)[Fuc(a1-3)]GlcNAc", "outline": "as §1"}, "[25]": {"molecular_target": "Fuc(a1-3)[Gal(b1-4)]GlcNAc(b1-3)GalNAc", "outline": "as §1"}, "[26]": {"molecular_target": "Fuc(a1-3)[Gal(b1-4)]GlcNAc(b1-6)GalNAc", "outline": "as §1"}, "[27]": {"molecular_target": "Fuc(a1-3)[Gal(b1-4)]GlcNAc(b1-6)[Gal(b1-3)GlcNAc(b1-3)]Gal(b1-4)Glc", "outline": "as §1"}, "[28]": {"molecular_target": "Fuc(a1-3)[Gal(b1-4)]GlcNAc6S", "outline": "as §1"}, "[29]": {"molecular_target": "Fuc(a1-3)[Gal3S(b1-4)]Glc", "outline": "as §1"}, "[30]": {"molecular_target": "Fuc(a1-3)[Gal3S(b1-4)]GlcNAc", "outline": "as §1"}, "[31]": {"molecular_target": "Fuc(a1-3)[Gal3S(b1-4)]GlcNAc6S", "outline": "as §1"}, "[32]": {"molecular_target": "Fuc(a1-3)[GalNAc(b1-4)]GlcNAc", "outline": "as §1"}, "[33]": {"molecular_target": "Fuc(a1-3)[GalNAc(b1-4)]GlcNAc6S", "outline": "as §1"}, "Fuc(a1-4)GlcNAc": {"molecular_target": "Fuc(a1-4)GlcNAc", "outline": "as §1"}, "Fuc(b1-3)GlcNAc": {"molecular_target": "Fuc(b1-3)GlcNAc", "outline": "as §1"}, "Gal(a1-2)Gal": {"molecular_target": "Gal(a1-2)Gal", "outline": "as §1"}},
  "note": "The list shows a part of the results.",
  "data": [
    {"binder": "SUN4 (Saccharomyces cerevisiae), P53616 (protein) MGSSHHHHHHSSGLVPRGSHNGSIYGDLADFSGPYEKFEDGTIPCGQFPSGQGVIPISWLDEGGWSGVENTDTSTGGSCKEGSYCSYACQPGMSKTQWPSDQPSDGRSIGGLLCKDGYLYRSNTDTDYLCEWGVDAAYVVSELSNDVAICRTDYPGTENMVIPTYVQAGDSLPLTVVDQDTYYTWQGLKTSAAYYVNNAGISVEDACVWGSSSSGVGNWAPLNFGAGSSDGVAYLSLIPNPNNGNALNFNVKIVAADDSSTVNGECIYENGSFSGGSDGCTVSVTAGKAKFVLYN", "values": [
      {"measurement": "glycan array binding signal (z-score)", "setting": "[1]", "value": 1.37},
      {"measurement": "glycan array binding signal (z-score)", "setting": "[2]", "value": -1.18},
      {"measurement": "glycan array binding signal (z-score)", "setting": "[3]", "value": -0.617},
      {"measurement": "glycan array binding signal (z-score)", "setting": "[4]", "value": -0.844},
      {"measurement": "glycan array binding signal (z-score)", "setting": "[5]", "value": -0.198},
      {"measurement": "glycan array binding signal (z-score)", "setting": "[6]", "value": 0.618},
      {"measurement": "glycan array binding signal (z-score)", "setting": "[7]", "value": -0.177},
      {"measurement": "glycan array binding signal (z-score)", "setting": "[8]", "value": 0.152},
      {"measurement": "glycan array binding signal (z-score)", "setting": "[9]", "value": 0.884},
      {"measurement": "glycan array binding signal (z-score)", "setting": "[10]", "value": 0.641},
      {"measurement": "glycan array binding signal (z-score)", "setting": "[11]", "value": -0.974},
      {"measurement": "glycan array binding signal (z-score)", "setting": "[12]", "value": 0.511},
      {"measurement": "glycan array binding signal (z-score)", "setting": "[13]", "value": 0.234},
      {"measurement": "glycan array binding signal (z-score)", "setting": "[14]", "value": 0.567},
      {"measurement": "glycan array binding signal (z-score)", "setting": "[15]", "value": -0.125},
      {"measurement": "glycan array binding signal (z-score)", "setting": "[16]", "value": -0.099},
      {"measurement": "glycan array binding signal (z-score)", "setting": "Fuc(a1-3)GlcNAc", "value": 0.527},
      {"measurement": "glycan array binding signal (z-score)", "setting": "[17]", "value": 0.576},
      {"measurement": "glycan array binding signal (z-score)", "setting": "[18]", "value": -0.357},
      {"measurement": "glycan array binding signal (z-score)", "setting": "[19]", "value": 0.186},
      {"measurement": "glycan array binding signal (z-score)", "setting": "[20]", "value": -0.338},
      {"measurement": "glycan array binding signal (z-score)", "setting": "[21]", "value": 0.353},
      {"measurement": "glycan array binding signal (z-score)", "setting": "[22]", "value": -0.516},
      {"measurement": "glycan array binding signal (z-score)", "setting": "[23]", "value": -0.618},
      {"measurement": "glycan array binding signal (z-score)", "setting": "[24]", "value": -0.719},
      {"measurement": "glycan array binding signal (z-score)", "setting": "[25]", "value": 0.852},
      {"measurement": "glycan array binding signal (z-score)", "setting": "[26]", "value": -0.085},
      {"measurement": "glycan array binding signal (z-score)", "setting": "[27]", "value": -1.78},
      {"measurement": "glycan array binding signal (z-score)", "setting": "[28]", "value": 0.316},
      {"measurement": "glycan array binding signal (z-score)", "setting": "[29]", "value": -0.004},
      {"measurement": "glycan array binding signal (z-score)", "setting": "[30]", "value": 0.058},
      {"measurement": "glycan array binding signal (z-score)", "setting": "[31]", "value": 0.353},
      {"measurement": "glycan array binding signal (z-score)", "setting": "[32]", "value": -0.319},
      {"measurement": "glycan array binding signal (z-score)", "setting": "[33]", "value": -0.724},
      {"measurement": "glycan array binding signal (z-score)", "setting": "Fuc(a1-4)GlcNAc", "value": -0.379},
      {"measurement": "glycan array binding signal (z-score)", "setting": "Fuc(b1-3)GlcNAc", "value": 0.194},
      {"measurement": "glycan array binding signal (z-score)", "setting": "Gal(a1-2)Gal", "value": -0.951}
    ]}
  ]
}
